Data taken from patent publication US20100322862A1.
No constants are given. Whether binding was seen depends on the method and setting. Some binding calls cover weakened binding; strength is not graded here.

The chains behind the UniProt entries cited, without tags or fusion partners. Residues count along the entry.
UniProt O14786, residues 22-923: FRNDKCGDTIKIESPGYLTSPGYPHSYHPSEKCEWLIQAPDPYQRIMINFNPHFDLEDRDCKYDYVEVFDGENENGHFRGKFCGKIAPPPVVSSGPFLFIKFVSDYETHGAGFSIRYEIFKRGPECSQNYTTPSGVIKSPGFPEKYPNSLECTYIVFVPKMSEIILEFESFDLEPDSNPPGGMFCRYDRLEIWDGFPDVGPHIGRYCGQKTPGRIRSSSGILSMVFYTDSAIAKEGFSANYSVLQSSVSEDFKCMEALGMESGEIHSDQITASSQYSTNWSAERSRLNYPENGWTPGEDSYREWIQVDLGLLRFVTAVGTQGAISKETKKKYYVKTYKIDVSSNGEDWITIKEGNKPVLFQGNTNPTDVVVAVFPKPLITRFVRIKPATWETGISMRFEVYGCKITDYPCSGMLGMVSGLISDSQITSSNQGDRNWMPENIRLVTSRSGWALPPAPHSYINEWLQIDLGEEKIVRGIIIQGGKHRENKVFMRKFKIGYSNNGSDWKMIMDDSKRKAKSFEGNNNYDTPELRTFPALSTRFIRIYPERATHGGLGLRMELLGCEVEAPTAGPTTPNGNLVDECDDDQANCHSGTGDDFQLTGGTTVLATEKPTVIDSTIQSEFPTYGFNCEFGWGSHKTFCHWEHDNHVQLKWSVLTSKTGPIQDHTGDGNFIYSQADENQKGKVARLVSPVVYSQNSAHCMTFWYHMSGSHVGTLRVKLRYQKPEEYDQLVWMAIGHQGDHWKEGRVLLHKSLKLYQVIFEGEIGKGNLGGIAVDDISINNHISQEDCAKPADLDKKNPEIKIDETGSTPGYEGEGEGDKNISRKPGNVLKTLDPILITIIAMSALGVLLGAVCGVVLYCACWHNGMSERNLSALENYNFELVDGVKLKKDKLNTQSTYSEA

Tests used:
[1] = target: wild type NRP-1 expressed in M21 melanoma cells (UniProt O14786); assay: phage binding to M21 melanoma cells transfected with NRP-1
[2] = target: NRP-1 (130-kDa protein from PPC-1 tumor extracts) (UniProt O14786); assay: affinity chromatography of PPC-1 tumor extracts on immobilised RPARPAR, elution with free peptide; confirmed by immunoblotting

Binder	binding [1]	binding [2]
RPARPAR (peptide, bacteriophage T7, not shown: large carriers) [RPARPAR phage (T7 phage displaying RPARPAR at the C-terminus of the major coat protein gp10)]	binds	–
RPARPAR [RPARPAR peptide]	–	binds
